No constants are given. Whether binding was seen depends on the method and setting. Binding seen in cells or lysates may run through a third protein. These calls come from enrichment with a bait or labelling near it, and not all partners need be listed. Tags and fused reporters may be left off the sequences shown.
Molecular target: T1, FLAG-CDK5RAP2 (706–1241) (human) (UniProt Q96SN8)
T1 sequence: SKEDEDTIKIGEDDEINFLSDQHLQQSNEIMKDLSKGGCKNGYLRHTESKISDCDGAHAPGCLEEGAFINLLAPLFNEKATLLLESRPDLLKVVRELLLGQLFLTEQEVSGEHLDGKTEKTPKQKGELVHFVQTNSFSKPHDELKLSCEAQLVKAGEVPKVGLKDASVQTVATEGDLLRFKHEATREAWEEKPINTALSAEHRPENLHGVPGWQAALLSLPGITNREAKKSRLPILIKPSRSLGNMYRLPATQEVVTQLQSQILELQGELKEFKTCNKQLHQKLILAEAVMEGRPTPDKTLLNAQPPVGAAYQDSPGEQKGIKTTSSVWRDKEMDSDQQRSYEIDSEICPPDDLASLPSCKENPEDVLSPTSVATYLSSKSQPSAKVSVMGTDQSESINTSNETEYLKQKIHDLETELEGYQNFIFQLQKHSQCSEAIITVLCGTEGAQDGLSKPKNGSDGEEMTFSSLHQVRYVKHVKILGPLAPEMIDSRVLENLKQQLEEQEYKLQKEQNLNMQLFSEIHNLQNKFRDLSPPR
Assay: affinity purification with mass spectrometry; anti-FLAG immunoprecipitation from HEK293T cells transfected with FLAG-CDK5RAP2 (706–1241) or empty vector; bands cut from stained SDS-PAGE gels, tandem mass spectrometry

The chains behind the UniProt entries cited, without tags or fusion partners.
UniProt P63167: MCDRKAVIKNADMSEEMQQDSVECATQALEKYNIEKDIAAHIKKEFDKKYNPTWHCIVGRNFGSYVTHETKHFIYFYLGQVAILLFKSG

dynein light chain 8 (from UniProt P63167 1-89)
binding: binds

Reference: publication PMC3714271
